Reference: PubChem BioAssay AID1508597 (Cure First, 2020)
Shown is a random part of the about 2,100 reagents, under one of the conditions tested. 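Calls flag viability under 80% in either arm, not effects specific to rucaparib; the reference for percent is not stated.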 A reagent listed more than once was tested more than once; the source does not tell the runs apart. The record does not give: the 100% reference.

Test: 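Genes whose silencing sensitises or protects ovarian cancer cells against rucaparib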 (primary screen)
Cell system: human ovarian carcinoma lines grown from tumours: OCI-P5x (papillary serous) and OCI-C5x (clear cell)
Reagents: siRNA pool against human genes, 1.25 pmol siRNA per well
Time to read-out: 72 h or 96 h, depending on the cell culture
Conditions: rucaparib 20 µM (about IC30) or vehicle, present until read-out
Rucaparib or vehicle: Rucaparib
Cell line: OCI-P5x (serous)
Measurement: 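Luminescent ATP-based viability assay read 72 or 96 h after transfection, depending on culture, given as normalised percent viability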
Scale: viability, normalised: higher = more viable cells remaining
Hit rule: 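a well counts as a hit if its normalised viability is under 80 percent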
Calls: active = viability under 80%; inactive = viability 80% or more

gene	technical replicate	viability, normalised (%)	outcome
KLF1	1	61.5	active
KLF1	2	72.4	active
KLF1	3	79.5	active
DDX25	1	54.6	active
DDX25	2	61.1	active
DDX25	3	51.9	active
CDIPT	1	77.6	active
CDIPT	2	67.8	active
CDIPT	3	64.1	active
SFMBT2	1	55.4	active
SFMBT2	2	51.7	active
SFMBT2	3	37.9	active
KDM4B	1	54.1	active
KDM4B	2	55.9	active
KDM4B	3	49	active
SPHK1	1	61.8	active
SPHK1	2	75.6	active
SPHK1	3	49.4	active
RPS9	1	48.9	active
RPS9	2	69.8	active
RPS9	3	65.9	active
BABAM2	1	91.2	inactive
BABAM2	1	79.7	active
BABAM2	2	107	inactive
BABAM2	2	77.1	active
BABAM2	3	87.9	inactive
BABAM2	3	107	inactive
LIMK2	1	96.3	inactive
LIMK2	1	84.2	inactive
LIMK2	2	83.7	inactive
LIMK2	2	66.7	active
LIMK2	3	102	inactive
LIMK2	3	71.9	active
DGKI	1	84.2	inactive
DGKI	2	64	active
DGKI	3	59.6	active
CHMP1A	1	62.9	active
CHMP1A	2	70	active
CHMP1A	3	83	inactive
NME6	1	61.7	active
NME6	1	83.2	inactive
NME6	2	75.3	active
NME6	2	65.7	active
NME6	3	63.6	active
NME6	3	65.1	active
MIER2	1	52	active
MIER2	2	56.6	active
MIER2	3	49.9	active
CHMP4B	1	71	active
CHMP4B	2	83.1	inactive
CHMP4B	3	61.4	active
MGMT	1	52.6	active
MGMT	1	84.2	inactive
MGMT	2	88.9	inactive
MGMT	2	63.2	active
MGMT	3	72.4	active
MGMT	3	73.3	active
